For one substance, binding results are on record in paper PMC7070046.

By UniProt entry, the sequences of proteins in these tests, tags left out.
UniProt O95271: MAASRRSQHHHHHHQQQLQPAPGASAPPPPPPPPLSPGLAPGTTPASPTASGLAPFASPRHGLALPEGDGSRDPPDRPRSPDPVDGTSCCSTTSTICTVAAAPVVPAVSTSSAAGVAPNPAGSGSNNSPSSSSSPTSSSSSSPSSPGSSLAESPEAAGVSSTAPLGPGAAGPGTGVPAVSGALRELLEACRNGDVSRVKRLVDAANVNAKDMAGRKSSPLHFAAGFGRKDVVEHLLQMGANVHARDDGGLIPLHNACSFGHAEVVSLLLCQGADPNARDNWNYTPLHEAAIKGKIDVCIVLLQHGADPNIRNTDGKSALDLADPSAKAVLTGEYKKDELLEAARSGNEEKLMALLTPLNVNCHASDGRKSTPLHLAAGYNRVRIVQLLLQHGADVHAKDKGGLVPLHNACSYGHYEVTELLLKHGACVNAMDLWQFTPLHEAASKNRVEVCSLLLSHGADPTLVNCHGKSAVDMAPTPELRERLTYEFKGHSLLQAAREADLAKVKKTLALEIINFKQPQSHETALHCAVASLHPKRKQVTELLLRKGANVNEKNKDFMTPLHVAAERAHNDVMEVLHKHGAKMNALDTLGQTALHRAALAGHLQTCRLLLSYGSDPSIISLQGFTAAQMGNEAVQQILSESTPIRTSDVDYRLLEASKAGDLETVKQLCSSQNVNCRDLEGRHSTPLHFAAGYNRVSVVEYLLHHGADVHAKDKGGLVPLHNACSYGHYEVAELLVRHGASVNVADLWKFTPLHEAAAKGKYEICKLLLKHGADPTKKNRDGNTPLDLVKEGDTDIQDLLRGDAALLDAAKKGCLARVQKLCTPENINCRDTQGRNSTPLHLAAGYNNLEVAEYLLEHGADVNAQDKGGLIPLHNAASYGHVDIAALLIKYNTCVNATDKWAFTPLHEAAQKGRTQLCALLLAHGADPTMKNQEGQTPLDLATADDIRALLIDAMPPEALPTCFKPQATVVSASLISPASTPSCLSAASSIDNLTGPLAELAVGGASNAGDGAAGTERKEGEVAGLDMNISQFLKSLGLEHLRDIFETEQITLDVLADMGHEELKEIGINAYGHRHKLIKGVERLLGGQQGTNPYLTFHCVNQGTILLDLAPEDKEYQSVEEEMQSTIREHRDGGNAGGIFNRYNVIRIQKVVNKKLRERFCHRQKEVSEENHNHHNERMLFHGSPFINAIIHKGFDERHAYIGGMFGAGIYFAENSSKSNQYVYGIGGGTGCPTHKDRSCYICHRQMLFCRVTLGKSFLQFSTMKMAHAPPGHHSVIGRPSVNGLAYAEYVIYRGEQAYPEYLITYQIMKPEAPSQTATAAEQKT

Results are given in words; binding and its absence hold for the method and conditions named. Binding seen in cells or lysates may run through a third protein. Here binding means that the protein was enriched with, or labelled near, the bait; the list need not be complete. Sequences can lack the tags named with a protein.

The test has as its target T1, His-GFP-SSSCA1 (SSSCA1 FL, residues A2-H199) (human) (UniProt O60232).
T1 sequence: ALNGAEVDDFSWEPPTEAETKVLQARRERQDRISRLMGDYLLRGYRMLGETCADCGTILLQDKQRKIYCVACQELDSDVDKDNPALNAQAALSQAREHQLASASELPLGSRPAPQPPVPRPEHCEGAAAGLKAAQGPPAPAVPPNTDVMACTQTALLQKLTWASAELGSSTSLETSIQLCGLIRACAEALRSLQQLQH
As to the kind of experiment: affinity purification with mass spectrometry; tandem-affinity purification (His SpinTrap, then GFP-Trap A beads) of His-GFP-SSSCA1 from lysates of transfected HeLa, SW480 or LNCaP cells, 18 h after transfection; 50 mM HEPES pH 7.4, 150 mM NaCl, 5% glycerol, 0.5% NP40; gel slices, LC-MS/MS.

For the substance “Tankyrase 1 (TNKS1), endogenous (from UniProt O95271 1-1327) (enzyme)”, the binding result is on record as “binds”.
